Data published in the supplement of paper PMC10849652.
This is one part of the list. Residues, ends and D or L forms follow the SMILES beside them. *: point of attachment. Cbz = O=C(OCc1ccccc1)*

Protein sequences, listed by entry. Tags and fused reporters are not part of them. Lines headed by an entry give the natural chain unless they say otherwise; changes in a name come on top.
UniProt Q9UFF9, whole entry, looked up: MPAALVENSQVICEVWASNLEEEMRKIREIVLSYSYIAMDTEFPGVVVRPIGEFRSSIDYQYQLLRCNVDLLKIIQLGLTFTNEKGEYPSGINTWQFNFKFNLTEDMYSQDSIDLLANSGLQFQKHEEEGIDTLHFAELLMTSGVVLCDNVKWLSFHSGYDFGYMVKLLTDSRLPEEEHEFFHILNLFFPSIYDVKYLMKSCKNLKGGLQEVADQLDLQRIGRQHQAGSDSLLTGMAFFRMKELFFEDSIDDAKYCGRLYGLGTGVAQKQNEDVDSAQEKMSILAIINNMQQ
UniProt P51788: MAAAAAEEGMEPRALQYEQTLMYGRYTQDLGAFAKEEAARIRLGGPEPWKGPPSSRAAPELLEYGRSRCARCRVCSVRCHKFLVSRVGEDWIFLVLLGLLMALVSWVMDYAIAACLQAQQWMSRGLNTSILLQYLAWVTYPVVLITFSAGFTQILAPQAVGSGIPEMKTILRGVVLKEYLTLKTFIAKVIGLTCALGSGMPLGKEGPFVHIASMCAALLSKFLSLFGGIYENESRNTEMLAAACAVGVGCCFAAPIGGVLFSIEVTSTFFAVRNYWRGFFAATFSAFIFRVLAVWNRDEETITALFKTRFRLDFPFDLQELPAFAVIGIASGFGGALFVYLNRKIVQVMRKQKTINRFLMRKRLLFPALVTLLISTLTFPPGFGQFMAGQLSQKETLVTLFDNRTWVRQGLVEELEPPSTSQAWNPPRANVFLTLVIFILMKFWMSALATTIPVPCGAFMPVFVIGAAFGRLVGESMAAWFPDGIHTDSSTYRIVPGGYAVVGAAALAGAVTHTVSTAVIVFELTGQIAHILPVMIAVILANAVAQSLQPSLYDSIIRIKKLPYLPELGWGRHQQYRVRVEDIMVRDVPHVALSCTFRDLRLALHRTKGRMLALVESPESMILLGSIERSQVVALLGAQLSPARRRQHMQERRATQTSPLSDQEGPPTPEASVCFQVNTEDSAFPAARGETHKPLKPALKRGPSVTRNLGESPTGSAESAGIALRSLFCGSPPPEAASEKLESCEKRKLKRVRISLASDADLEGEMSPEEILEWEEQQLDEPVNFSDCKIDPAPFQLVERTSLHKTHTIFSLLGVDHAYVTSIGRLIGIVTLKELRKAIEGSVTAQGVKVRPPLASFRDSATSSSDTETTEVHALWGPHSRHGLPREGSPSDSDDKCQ
UniProt Q96JB2: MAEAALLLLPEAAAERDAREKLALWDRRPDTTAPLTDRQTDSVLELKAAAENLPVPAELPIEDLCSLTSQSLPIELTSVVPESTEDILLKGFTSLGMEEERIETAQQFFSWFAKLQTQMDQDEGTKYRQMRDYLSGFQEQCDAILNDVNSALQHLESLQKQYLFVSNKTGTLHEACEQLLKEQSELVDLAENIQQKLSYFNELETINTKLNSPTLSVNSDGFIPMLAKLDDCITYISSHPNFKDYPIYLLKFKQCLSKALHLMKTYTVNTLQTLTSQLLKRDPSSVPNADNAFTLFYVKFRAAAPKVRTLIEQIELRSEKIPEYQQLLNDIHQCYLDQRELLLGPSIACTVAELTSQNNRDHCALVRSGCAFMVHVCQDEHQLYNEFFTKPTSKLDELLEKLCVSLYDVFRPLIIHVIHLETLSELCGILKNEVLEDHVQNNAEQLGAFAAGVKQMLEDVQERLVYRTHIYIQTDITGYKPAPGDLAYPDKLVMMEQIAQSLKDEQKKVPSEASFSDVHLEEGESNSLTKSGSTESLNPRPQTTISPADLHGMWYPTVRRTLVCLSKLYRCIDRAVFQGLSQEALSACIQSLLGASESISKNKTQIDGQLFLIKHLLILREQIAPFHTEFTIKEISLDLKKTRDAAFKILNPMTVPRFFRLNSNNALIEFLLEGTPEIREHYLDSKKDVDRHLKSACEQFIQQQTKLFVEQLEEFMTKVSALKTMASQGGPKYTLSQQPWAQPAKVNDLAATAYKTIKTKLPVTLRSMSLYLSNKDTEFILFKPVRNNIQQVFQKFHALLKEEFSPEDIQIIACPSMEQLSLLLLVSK
UniProt Q86WW8: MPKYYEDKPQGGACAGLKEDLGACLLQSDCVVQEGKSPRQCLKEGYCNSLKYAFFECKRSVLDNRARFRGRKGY
UniProt P51797: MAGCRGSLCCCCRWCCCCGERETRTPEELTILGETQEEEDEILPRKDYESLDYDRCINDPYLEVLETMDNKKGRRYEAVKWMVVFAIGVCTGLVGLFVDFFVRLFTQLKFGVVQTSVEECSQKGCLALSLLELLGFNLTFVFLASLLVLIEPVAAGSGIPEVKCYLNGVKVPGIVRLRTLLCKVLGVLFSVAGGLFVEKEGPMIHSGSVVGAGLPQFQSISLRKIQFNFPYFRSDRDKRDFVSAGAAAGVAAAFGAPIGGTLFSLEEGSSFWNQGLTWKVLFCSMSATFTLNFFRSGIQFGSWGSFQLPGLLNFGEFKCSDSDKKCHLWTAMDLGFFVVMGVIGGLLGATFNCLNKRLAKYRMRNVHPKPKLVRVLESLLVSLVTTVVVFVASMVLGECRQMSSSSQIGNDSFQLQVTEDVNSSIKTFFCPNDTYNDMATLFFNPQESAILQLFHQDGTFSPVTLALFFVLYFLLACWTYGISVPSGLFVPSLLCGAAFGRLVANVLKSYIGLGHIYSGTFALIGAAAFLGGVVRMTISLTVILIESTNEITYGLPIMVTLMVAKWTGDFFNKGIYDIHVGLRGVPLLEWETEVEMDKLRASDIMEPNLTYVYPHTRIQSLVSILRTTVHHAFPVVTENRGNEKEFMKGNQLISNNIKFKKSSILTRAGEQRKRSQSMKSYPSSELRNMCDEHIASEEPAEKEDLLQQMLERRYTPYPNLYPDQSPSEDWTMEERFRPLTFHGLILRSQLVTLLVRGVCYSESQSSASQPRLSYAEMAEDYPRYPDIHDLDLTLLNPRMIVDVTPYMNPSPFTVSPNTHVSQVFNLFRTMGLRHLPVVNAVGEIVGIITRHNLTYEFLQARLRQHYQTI
UniProt Q96F85: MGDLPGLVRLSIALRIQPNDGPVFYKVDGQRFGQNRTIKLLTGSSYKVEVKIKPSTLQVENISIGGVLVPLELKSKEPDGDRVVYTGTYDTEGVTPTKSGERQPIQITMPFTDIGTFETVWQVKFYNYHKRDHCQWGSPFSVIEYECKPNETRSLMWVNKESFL
UniProt Q9P003: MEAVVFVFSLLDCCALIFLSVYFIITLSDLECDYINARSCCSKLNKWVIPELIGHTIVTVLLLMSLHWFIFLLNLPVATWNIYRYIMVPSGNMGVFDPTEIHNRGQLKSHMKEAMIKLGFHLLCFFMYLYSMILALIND
UniProt O95628: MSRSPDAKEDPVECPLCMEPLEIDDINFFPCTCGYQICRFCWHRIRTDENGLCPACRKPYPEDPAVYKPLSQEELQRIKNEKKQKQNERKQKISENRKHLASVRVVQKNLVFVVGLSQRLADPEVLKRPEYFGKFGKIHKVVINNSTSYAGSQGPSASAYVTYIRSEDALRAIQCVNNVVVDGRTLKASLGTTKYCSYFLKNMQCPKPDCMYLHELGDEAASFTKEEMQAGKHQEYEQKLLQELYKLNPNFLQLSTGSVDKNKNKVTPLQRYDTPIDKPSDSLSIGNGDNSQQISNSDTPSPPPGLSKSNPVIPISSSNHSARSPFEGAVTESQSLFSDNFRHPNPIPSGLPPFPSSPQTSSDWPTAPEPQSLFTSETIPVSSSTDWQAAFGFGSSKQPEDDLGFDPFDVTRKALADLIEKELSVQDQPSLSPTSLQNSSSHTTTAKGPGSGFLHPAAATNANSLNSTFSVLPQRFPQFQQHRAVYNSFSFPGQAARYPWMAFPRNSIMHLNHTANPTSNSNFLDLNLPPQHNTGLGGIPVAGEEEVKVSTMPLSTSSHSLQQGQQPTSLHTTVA
UniProt Q14746: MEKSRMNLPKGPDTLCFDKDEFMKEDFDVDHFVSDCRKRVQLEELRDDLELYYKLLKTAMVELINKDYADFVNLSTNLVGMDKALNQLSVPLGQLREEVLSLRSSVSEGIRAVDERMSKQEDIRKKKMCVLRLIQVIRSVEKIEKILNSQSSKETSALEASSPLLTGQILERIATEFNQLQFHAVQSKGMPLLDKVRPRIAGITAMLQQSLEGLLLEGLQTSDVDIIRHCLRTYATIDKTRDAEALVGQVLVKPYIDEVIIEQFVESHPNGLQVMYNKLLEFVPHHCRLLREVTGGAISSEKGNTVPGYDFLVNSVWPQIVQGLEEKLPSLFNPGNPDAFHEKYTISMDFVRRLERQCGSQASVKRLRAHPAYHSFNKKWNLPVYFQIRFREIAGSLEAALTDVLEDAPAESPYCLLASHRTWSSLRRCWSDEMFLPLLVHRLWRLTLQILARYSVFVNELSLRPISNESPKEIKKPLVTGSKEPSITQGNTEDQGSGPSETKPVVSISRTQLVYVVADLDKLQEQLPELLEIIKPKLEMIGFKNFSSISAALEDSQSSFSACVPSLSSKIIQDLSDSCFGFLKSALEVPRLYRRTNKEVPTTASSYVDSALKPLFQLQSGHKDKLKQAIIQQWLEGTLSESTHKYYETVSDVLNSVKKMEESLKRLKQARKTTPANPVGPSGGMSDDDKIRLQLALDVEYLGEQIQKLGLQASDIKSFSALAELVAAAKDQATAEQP
UniProt Q8N2M8: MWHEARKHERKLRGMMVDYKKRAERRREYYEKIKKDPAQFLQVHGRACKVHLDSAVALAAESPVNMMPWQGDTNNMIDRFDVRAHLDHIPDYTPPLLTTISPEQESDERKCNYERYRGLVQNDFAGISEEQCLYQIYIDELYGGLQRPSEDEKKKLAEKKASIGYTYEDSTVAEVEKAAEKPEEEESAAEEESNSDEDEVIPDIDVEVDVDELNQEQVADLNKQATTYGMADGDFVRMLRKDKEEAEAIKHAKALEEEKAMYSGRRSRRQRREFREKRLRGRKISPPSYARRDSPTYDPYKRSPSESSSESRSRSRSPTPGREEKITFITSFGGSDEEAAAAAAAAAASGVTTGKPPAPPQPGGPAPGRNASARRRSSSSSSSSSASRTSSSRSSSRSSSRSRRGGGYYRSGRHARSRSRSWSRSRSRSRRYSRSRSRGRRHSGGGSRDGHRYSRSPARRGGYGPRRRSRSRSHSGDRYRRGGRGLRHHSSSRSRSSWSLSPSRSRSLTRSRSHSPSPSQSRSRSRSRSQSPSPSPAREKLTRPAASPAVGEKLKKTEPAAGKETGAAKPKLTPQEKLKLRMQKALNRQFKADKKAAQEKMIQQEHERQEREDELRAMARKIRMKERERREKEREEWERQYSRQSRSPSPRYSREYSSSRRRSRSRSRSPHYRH

Tests used:
Assay in all cases: log2 fold change, soluble protein after heating vs DMSO (PISA); higher = thermal stabilisation; K562 cells, 10 uM, 30 min; active = over 0.2 and 3.5 SD of the protein, either way, in both replicates (recomputed)
erlotinib = compound: C#Cc1cccc(Nc2ncnc3cc(OCCOC)c(OCCOC)cc23)c1 [erlotinib]
Method in brief: (§1)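 Thermal stability values are relative to control samples and come from duplicates. They are expressed as log2 fold changes. For measurement, K562 cells (2×10^6 cells/mL) received 10 μM compound for 30 min, and aliquots were heated for 3 min over 48°C-58°C, pooled, and extracted at 4°C in PBS with 0.5% NP-40. Soluble protein, the supernatant after 21,000xg for 90 min, was quantified by TMTpro 16plex LC-MS/MS with equalised channel sums.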

[1] = compound: C1=CC(=C(C=C1Cl)C2=NC3=NC=CN=C3C(=N2)NC4=CC=NC=C4)F
Method in brief: as §1

[2] = compound: C1=CC(=CC=C1C2=NC3=C(N2)C=C(C=C3)C(=O)N)OC4=CC=C(C=C4)Cl
Method in brief: as §1

[3] = compound: C1=CC2=NC=CN=C2C=C1/C=C/3\C(=O)NC(=O)S3
Method in brief: as §1

[4] = compound: C1=CC=C(C=C1)C2=NC(=C(N2)C3=CC=NC=C3)C4=CC(=C(C=C4)Cl)O
Method in brief: as §1

[5] = compound: C1CCN(C1)C(=O)NC2=CC=CC(=C2)NC3=NC=C(C(=N3)NCCC4=CN=CN4)Br
Method in brief: as §1

[6] = compound: C1CN(CCC1(CC2=CC=C(C=C2)Cl)N)C3=NC=NC4=C3C=CN4
Method in brief: as §1

IRAK-1-4 Inhibitor I = compound: C1COCCN1CCN2C3=CC=CC=C3N=C2NC(=O)C4=CC(=CC=C4)[N+](=O)[O-] [IRAK-1-4 Inhibitor I]
Method in brief: as §1

ibrutinib = compound: C=CC(=O)N1CCC[C@@H](n2nc(-c3ccc(Oc4ccccc4)cc3)c3c(N)ncnc32)C1 [ibrutinib]
Method in brief: as §1

ralimetinib = compound: CC(C)(C)Cn1c(N)nc2ccc(-c3[nH]c(C(C)(C)C)nc3-c3ccc(F)cc3)nc21 [ralimetinib]
Method in brief: as §1

[7] = compound: CC(C)(O)CC(=O)NCCn1ccc2ncnc(Nc3ccc(Oc4cccc(C(F)(F)F)c4)c(Cl)c3)c21
Method in brief: as §1

[8] = compound: CC(C)C1=C2N=C(C=C(N2N=C1)NCC3=CC=CC=C3)NCCCCCCN
Method in brief: as §1

[9] = compound: CC(C)C[C@@H](C=O)NC(=O)[C@H](CC(C)C)NC(=O)[C@H](CC(C)C)NC(=O)OCc1ccccc1
Method in brief: as §1

pinometostat = compound: CC(C)N(C[C@H]1O[C@@H](n2cnc3c(N)ncnc32)[C@H](O)[C@@H]1O)[C@H]1C[C@@H](CCc2nc3cc(C(C)(C)C)ccc3[nH]2)C1 [pinometostat]
Method in brief: as §1

[10] = compound: CC1=C(C(CC(=O)N1)C2=CC=C(C=C2)C(F)(F)F)C(=O)NC3=C(C=C4C(=C3)C=NN4)F
Method in brief: as §1

[11] = compound: CC1=C(C2=C(C=C1)C(=O)C3=CC=CC=C3N2CCCN)C
Method in brief: as §1

[12] = compound: C/C(=N\NC(=O)C1=CC(=CC=C1)S(=O)(=O)N2CCOCC2)/C3=C(C=CC(=C3)Cl)O
Method in brief: as §1

[13] = compound: C1=CC2=C(C=CC(=C2)/C=C\3/C(=O)NC(=NCC4=CC=CS4)S3)N=C1
Method in brief: as §1

[14] = compound: C1=CC=C2C(=C1)C3=NNC4=CC=CC(=C43)C2=O
Method in brief: as §1

[15] = compound: CC(=O)c1cnc2ccc(-c3cc(Cl)c(O)c(Cl)c3)nc2c1N[C@H]1CC[C@H](CN(C)C)CC1
Method in brief: as §1

Measured: log2 fold change

CNOT8 (UniProt Q9UFF9)
inactive: erlotinib 0.007 | [1] -0.134 | [2] -0.036 | [3] 0.083 | [4] 0.008 | [5] 0.029 | [6] 0.155 | IRAK-1-4 Inhibitor I -0.015 | ibrutinib 0.043 | ralimetinib -0.004 | [7] -0.043 | [8] -0.059 | [9] -0.019 | pinometostat 0.105 | [10] 0.017 | [11] -0.076

CLCN2 (UniProt P51788)
inactive: erlotinib 0.017 | [12] 0.117 | [1] -0.092 | [2] 0.029 | [13] 0.026 | [3] -0.041 | [4] 0.071 | [14] -0.076 | IRAK-1-4 Inhibitor I -0.047 | [15] -0.078 | ralimetinib 0.014 | [7] 0.076 | [8] -0.128 | [9] 0.003 | pinometostat -0.035 | [10] -0.069

COG3 (UniProt Q96JB2)
inactive: erlotinib -0.07 | [1] -0.028 | [2] -0.487 | [3] -0.029 | [4] -0.078 | IRAK-1-4 Inhibitor I -0.054 | ibrutinib 0 | ralimetinib 0.14 | [7] -0.016 | [8] -0.502 | [9] 0.047 | pinometostat 0.009

COA5 (UniProt Q86WW8)
inactive: erlotinib 0.136 | [12] -0.008 | [1] -0.021 | [2] -0.026 | [13] 0.073 | [14] -0.092 | IRAK-1-4 Inhibitor I -0.136 | [15] -0.077 | [7] -0.047 | [8] -0.088 | pinometostat 0.037

CLCN6 isoform 5 (UniProt P51797)
inactive: erlotinib 0.065 | [12] 0.009 | [1] -0.224 | [2] 0.152 | [13] -0.047 | [3] 0.01 | [4] 0.074 | [14] 0.056 | IRAK-1-4 Inhibitor I -0.001 | [15] 0.062 | ralimetinib -0.016 | [7] 0.016 | [8] -0.159 | [9] 0.065 | pinometostat -0.026 | [10] 0.063

CNRIP1 (UniProt Q96F85)
inactive: erlotinib -0.065 | [1] 0.045 | [2] 0.045 | [4] -0.115 | ralimetinib -0.051 | [7] -0.255 | [8] 0.034 | [9] 0.116

Fetched one by one from above, 2 records:
CNRIP1 (UniProt Q96F85)
inactive: erlotinib -0.065 | [1] 0.045 | [2] 0.045 | [4] -0.115 | ralimetinib -0.051 | [7] -0.255 | [8] 0.034 | [9] 0.116

COG3 (UniProt Q96JB2)
inactive: erlotinib -0.07 | [1] -0.028 | [2] -0.487 | [3] -0.029 | [4] -0.078 | IRAK-1-4 Inhibitor I -0.054 | ibrutinib 0 | ralimetinib 0.14 | [7] -0.016 | [8] -0.502 | [9] 0.047 | pinometostat 0.009

Remaining list, next part:

CNIH4 (UniProt Q9P003)
inactive: erlotinib -0.129 | [12] 0.088 | [2] 0.028 | [13] 0.127 | [3] 0.076 | [4] -0.085 | [14] 0 | [5] 0.081 | [6] 0.047 | IRAK-1-4 Inhibitor I 0.127 | ibrutinib 0.137 | [15] 0.102 | ralimetinib 0.062 | [8] -0.082 | [9] 0.049 | pinometostat 0.008 | [10] -0.038 | [11] 0.03

CNOT4 isoform 9 (UniProt O95628)
inactive: erlotinib -0.011 | [12] -0.022 | [2] 0.047 | [13] 0.089 | [3] 0.018 | [4] 0.053 | [14] 0.245 | [5] 0.175 | [6] 0.455 | IRAK-1-4 Inhibitor I 0.09 | ibrutinib 0.089 | [15] 0.189 | ralimetinib 0.128 | [8] -0.068 | [9] 0.015 | pinometostat -0.028 | [11] 0.202

COG2 (UniProt Q14746)
inactive: erlotinib -0.082 | [12] -0.367 | [1] 0.012 | [2] -0.026 | [13] 0.478 | [4] -0.223 | [14] -0.137 | [5] 0.257 | [6] -0.065 | IRAK-1-4 Inhibitor I -0.232 | [15] -0.042 | ralimetinib 0.099 | [7] -0.317 | [8] -0.009 | [9] 0.18 | pinometostat -0.043 | [11] -0.108

CLASRP (UniProt Q8N2M8)
inactive: erlotinib 0.034 | [12] 0.093 | [1] -0.006 | [2] 0.079 | [13] 0.253 | [3] 0.054 | [14] -0.092 | IRAK-1-4 Inhibitor I 0.027 | [15] -0.105 | [7] 0.045 | [8] -0.114 | pinometostat 0.035 | [10] 0.149
